These are yes or no findings as the source states them, for the method shown. For part of these data: In cells and extracts the contact can be indirect. Some binding calls cover weakened binding; strength is not graded here. For part of these data: Tags and fused reporters may be left off the sequences shown.
Experiments:
[1] = target: T1, FliR-His (Salmonella enterica serovar Typhimurium) (UniProt P54702); assay: pull-down + SEC; co-purification with FliR-His by Ni affinity chromatography, followed by size exclusion chromatography; complex solubilised with LMNG
T1 sequence: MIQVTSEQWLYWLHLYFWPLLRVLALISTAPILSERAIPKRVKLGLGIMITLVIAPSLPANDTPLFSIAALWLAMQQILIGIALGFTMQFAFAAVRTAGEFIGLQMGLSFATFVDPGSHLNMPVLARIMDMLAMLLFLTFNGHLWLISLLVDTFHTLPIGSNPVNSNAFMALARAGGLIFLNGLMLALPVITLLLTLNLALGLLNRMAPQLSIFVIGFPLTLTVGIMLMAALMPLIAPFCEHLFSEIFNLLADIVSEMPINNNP

[2] = target: FliP (Salmonella enterica serovar Typhimurium) (UniProt P54700); assay: cryo-EM structure; FliP, FliQ and FliR-His co-expressed in Salmonella SJW1368, complex solubilised with LMNG, purified and reconstituted in a peptidisc; single-particle analysis, C1 symmetry, 3.0 Å, closed form
[3] = target: T1, FliR-His (Salmonella enterica serovar Typhimurium); assay: as above
[4] = target: T1, FliR-His (Salmonella enterica serovar Typhimurium); assay: negative-stain EM; purified FliP(L92A)QR-His complex compared with the wild-type complex

Measured: binding

B1: FliP (natural protein)
chain: QLPGLISQPLAGGGQSWSLSVQTLVFITSLTFLPAILLMMTSFTRIIIVFGLLRNALGTPSAPPNQVLLGLALFLTFFIMSPVIDKIYVDAYQPFSEQKISMQEALDKGAQPLRAFMLRQTREADLALFARLANSGPLQGPEAVPMRILLPAYVTSELKTAFQIGFTIFIPFLIIDLVIASVLMALGMMMVPPATIALPFKLMLFVLVDGWQLLMGSLAQSFYS
notes: FliP, Salmonella enterica serovar Typhimurium; signal peptide (residues 1 to 21) cleaved between Ala-21 and Gln-22 during membrane insertion; the mature protein begins at Gln-22; Five copies of FliP stand in the FliP5-FliQ4-FliR1 complex; also called mature FliP; FliP^1; source: membranes solubilised with 1% LMNG; reconstituted in a peptidisc
binds: all assays above

B2: FliQ (protein, UniProt P0A1L5 1-89)
chain: MTPESVMMMGTEAMKVALALAAPLLLVALITGLIISILQAATQINEMTLSFIPKIVAVFIAIIVAGPWMLNLLLDYVRTLFSNLPYIIG
binds: [1] | [4]

From paper PMC12403130, “A β-cap on the FliPQR protein-export channel acts as the cap for initial flagellar rod assembly” (Proceedings of the National Academy of Sciences of the …, 2025)
